These results are taken from paper PMC3938729.

Sequences of proteins named here, by UniProt entry; tags and fusion partners are left off.
UniProt P08670: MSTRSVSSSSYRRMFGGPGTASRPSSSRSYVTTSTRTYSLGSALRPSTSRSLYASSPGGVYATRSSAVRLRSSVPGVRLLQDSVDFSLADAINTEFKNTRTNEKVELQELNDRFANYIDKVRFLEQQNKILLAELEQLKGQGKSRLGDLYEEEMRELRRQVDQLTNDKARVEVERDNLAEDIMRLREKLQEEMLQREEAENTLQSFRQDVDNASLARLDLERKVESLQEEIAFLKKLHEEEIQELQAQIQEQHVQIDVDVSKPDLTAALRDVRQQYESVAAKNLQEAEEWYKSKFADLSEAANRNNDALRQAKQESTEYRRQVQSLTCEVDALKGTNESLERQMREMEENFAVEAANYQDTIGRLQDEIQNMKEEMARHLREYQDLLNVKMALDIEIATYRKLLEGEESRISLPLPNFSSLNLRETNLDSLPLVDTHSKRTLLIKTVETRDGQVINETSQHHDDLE

No constants are given. Whether binding was seen depends on the method and setting. Binding seen in cells or lysates may run through a third protein. Some results given as binding are weak or reduced against the parent protein; the word gives no strength.

In test [1] the target is T1, perilipin (human (endogenous in human preadipose cells)) (UniProt O60240).
T1 sequence: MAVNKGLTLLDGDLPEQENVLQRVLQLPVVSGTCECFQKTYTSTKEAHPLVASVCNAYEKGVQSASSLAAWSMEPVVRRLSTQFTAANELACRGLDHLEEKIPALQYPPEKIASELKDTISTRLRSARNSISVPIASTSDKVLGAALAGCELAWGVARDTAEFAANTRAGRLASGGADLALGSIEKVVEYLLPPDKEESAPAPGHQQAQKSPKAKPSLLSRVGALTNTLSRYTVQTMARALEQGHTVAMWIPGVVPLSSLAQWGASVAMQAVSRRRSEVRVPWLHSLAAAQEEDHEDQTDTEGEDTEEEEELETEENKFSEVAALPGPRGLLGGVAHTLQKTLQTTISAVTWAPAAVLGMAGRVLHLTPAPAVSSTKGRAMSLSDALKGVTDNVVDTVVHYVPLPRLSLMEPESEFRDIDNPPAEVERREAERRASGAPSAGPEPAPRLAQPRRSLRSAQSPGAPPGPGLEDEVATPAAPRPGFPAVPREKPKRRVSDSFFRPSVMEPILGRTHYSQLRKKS
Briefly: co-IP; "OA Adipocytes" (AIM-stimulated and OA-treated preadipocytes); IP with perilipin antibodies, Western blotting; not shown. (In general: Immunoblotting shows a protein as a band on a membrane.)

Test [2] concerns the target vimentin (human (endogenous in human preadipose cells)) (UniProt P08670). The test is described as follows: cross-linking + co-IP; lysate supernatant cross-linked with 0.2 mM BM(PEG)2, 30 min, room temperature, before methanol precipitation and IP with mabs Peri112.17 or Vim3B4; Western blot with pab Peri-hNT.
For test [3] the target is unchanged. Briefly: co-IP; mabs Vim3B4 or Peri112.17 on protein G- or protein A-coated magnetic beads; lysate of briefly AIM-stimulated human preadipocytes (nitrogen cavitation, methanol-precipitated, dissolved in RIPA buffer); Western blot with pab Peri-hNT; control mab VE-cadherin.

For the molecule vimentin (from UniProt P08670 1-466), the binding result in test [1] was “binds”.

B1: perilipin (protein, UniProt O60240 1-522)
chain: MAVNKGLTLLDGDLPEQENVLQRVLQLPVVSGTCECFQKTYTSTKEAHPLVASVCNAYEKGVQSASSLAAWSMEPVVRRLSTQFTAANELACRGLDHLEEKIPALQYPPEKIASELKDTISTRLRSARNSISVPIASTSDKVLGAALAGCELAWGVARDTAEFAANTRAGRLASGGADLALGSIEKVVEYLLPPDKEESAPAPGHQQAQKSPKAKPSLLSRVGALTNTLSRYTVQTMARALEQGHTVAMWIPGVVPLSSLAQWGASVAMQAVSRRRSEVRVPWLHSLAAAQEEDHEDQTDTEGEDTEEEEELETEENKFSEVAALPGPRGLLGGVAHTLQKTLQTTISAVTWAPAAVLGMAGRVLHLTPAPAVSSTKGRAMSLSDALKGVTDNVVDTVVHYVPLPRLSLMEPESEFRDIDNPPAEVERREAERRASGAPSAGPEPAPRLAQPRRSLRSAQSPGAPPGPGLEDEVATPAAPRPGFPAVPREKPKRRVSDSFFRPSVMEPILGRTHYSQLRKKS
In the case of B1, the binding entry in test [2] and in test [3] was “binds” in each case.

B2: TIP47 (protein, UniProt O60664 1-434)
chain: MSADGAEADGSTQVTVEEPVQQPSVVDRVASMPLISSTCDMVSAAYASTKESYPHIKTVCDAAEKGVRTLTAAAVSGAQPILSKLEPQIASASEYAHRGLDKLEENLPILQQPTEKVLADTKELVSSKVSGAQEMVSSAKDTVATQLSEAVDATRGAVQSGVDKTKSVVTGGVQSVMGSRLGQMVLSGVDTVLGKSEEWADNHLPLTDAELARIATSLDGFDVASVQQQRQEQSYFVRLGSLSERLRQHAYEHSLGKLRATKQRAQEALLQLSQVLSLMETVKQGVDQKLVEGQEKLHQMWLSWNQKQLQGPEKEPPKPEQVESRALTMFRDIAQQLQATCTSLGSSIQGLPTNVKDQVQQARRQVEDLQATFSSIHSFQDLSSSILAQSRERVASAREALDHMVEYVAQNTPVTWLVGPFAPGITEKAPEEKK
Take B2: in test [1], the binding result is reported as “binds”.
